Measured values published in US5849760A, “2-(arylalkenyl)azacycloalkane derivatives as ligands for sigma receptors” (Institut de Recherche Jouveinal, priority 1993, dated 1998).

Biological target: PCP receptors
Assay: In vitro binding to PCP receptors with [^3 H]TCP
Conditions: rat brain membrane
Procedure: The test of binding to phenylcyclidine receptors (PCP receptors), performed in the presence of a ligand specific for PCP receptors, [^3 H]TCP, was used to investigate any undesirable interaction of the compounds of the invention with these receptors.
The principle of this technique is to place in competition the affinity of the test substance and that of a radioactive ligand specific for the receptor being studied.
The technique consists in incubating a preparation of rat brain membrane loaded with the labeled ligand specific for the receptor under study in solutions of varying concentration of the test substance. After filtration, one measures the radioactivity of the solution, which represents the displacement of this labeled ligand by the test substance.

In the case of O=C(CCCN1CCC(O)(c2ccc(Cl)cc2)CC1)c1ccc(F)cc1 [Haloperidol, reference compound], the IC50 is reported as 1.27 nM.
